According to publication PMC9166677:

Target: HSP90α (C-terminal) (UniProt P07900)
Assay: HSP90α (C-terminal) inhibitor screening assay; HSP90α (C-terminal):PPID binding activity read with or without the small-molecule HSP90 inhibitors SL-145, novobiocin or geldanamycin (500 μM); n = 3

peptidylprolyl isomerase D (from UniProt Q08752 1-370)
binding: binds

Results are given in words; binding and its absence hold for the method and conditions named. Binding can be weak; no strength is given.
